Results on two molecules are retold here after paper doi:10.1101/2022.09.08.507146.

These are yes or no findings as the source states them, for the method shown. Some entries that bind do so weakly or less than the wild type.

Experiment [1] concerns the target Prosthecobacter dejongeii wild-type BtubAB heterodimer (Prosthecobacter dejongeii) (UniProt Q8GCC5). The experiment can be described thus: negative-stain electron microscopy.
The target of experiment [2] is T1, Prosthecobacter dejongeii BtubA* (R284G, R286D, F287G M-loop mutant of BtubA) (Prosthecobacter dejongeii).
T1 sequence: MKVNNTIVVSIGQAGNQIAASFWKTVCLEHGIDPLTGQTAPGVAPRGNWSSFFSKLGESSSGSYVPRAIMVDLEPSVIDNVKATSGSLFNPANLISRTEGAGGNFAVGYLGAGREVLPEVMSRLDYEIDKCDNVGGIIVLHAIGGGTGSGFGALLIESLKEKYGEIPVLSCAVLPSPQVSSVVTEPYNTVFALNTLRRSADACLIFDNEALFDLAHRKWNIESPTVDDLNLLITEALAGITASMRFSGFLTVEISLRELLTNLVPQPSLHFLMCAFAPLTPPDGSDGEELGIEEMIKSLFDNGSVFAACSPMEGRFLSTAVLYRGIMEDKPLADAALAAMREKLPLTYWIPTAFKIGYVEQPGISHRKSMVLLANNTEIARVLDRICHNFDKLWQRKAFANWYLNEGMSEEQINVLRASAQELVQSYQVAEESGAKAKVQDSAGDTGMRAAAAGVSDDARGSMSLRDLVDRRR
In words: cryo-EM structure.

Consider “Prosthecobacter dejongeii wild-type BtubAB heterodimer (from UniProt Q8GCC5 1-473) (complex)”, for which the binding entry in experiment [1] is recorded as “binds”.

B1: Prosthecobacter dejongeii BtubB (protein)
chain: MREILSIHVGQCGNQIADSFWRLALREHGLTEAGTLKEGSNAAANSNMEVFFHKVRDGKYVPRAVLVDLEPGVIARIEGGDMSQLFDESSIVRKIPGAANNWARGYNVEGEKVIDQIMNVIDSAVEKTKGLQGFLMTHSIGGGSGSGLGSLILERLRQAYPKKRIFTFSVVPSPLISDSAVEPYNAILTLQRILDNADGAVLLDNEALFRIAKAKLNRSPNYMDLNNIIALIVSSVTASLRFPGKLNTDLSEFVTNLVPFPGNHFLTASFAPMRGAGQEGQVRTNFPDLARETFAQDNFTAAIDWQQGVYLAASALFRGDVKAKDVDENMATIRKSLNYASYMPASGGLKLGYAETAPEGFASSGLALVNHTGIAAVFERLIAQFDIMFDNHAYTHWYENAGVSRDMMAKARNQIATLAQSYRDAS
Take B1: the binding entry in experiment [2] was “binds”.
